What all share (assay): anti-FLAG co-IP, LC-MS/MS
Assay [1] has as its target T1, Ste11 (Saccharomyces cerevisiae) (UniProt P23561).
T1 sequence (looked up): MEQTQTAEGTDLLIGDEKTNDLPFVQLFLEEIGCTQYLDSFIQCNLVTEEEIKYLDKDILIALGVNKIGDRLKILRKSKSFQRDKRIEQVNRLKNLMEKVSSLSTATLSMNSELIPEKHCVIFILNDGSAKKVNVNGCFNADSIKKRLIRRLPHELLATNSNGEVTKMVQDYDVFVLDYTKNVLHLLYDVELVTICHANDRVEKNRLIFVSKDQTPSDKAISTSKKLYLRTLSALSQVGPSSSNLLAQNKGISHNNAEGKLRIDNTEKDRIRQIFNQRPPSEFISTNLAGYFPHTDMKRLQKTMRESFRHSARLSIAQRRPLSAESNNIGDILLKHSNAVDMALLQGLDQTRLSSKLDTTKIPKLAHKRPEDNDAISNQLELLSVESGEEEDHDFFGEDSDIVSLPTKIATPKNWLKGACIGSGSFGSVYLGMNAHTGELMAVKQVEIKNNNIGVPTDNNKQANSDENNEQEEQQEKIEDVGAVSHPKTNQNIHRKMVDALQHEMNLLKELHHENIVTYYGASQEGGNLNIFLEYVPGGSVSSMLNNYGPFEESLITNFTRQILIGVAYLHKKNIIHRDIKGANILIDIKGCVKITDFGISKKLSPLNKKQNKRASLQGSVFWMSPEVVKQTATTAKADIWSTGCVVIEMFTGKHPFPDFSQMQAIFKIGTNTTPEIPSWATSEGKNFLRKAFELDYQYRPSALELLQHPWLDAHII

Assay [2] addresses T2, Dig1/Rst1 (Saccharomyces cerevisiae) (UniProt Q03063).
T2 sequence (looked up): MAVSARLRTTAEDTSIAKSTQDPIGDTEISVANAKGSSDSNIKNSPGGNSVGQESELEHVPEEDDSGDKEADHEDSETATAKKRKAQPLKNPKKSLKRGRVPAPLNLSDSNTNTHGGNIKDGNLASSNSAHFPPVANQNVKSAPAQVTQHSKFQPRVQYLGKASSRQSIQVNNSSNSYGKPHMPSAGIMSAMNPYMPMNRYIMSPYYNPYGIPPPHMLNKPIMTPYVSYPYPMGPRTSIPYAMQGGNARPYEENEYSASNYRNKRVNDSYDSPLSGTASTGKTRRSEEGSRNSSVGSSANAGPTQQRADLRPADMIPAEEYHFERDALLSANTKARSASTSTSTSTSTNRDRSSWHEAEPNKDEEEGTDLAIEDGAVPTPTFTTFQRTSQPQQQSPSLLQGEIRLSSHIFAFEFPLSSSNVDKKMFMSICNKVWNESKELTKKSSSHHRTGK

Assay [3] has as its target T3, Tec1 (Saccharomyces cerevisiae) (UniProt P18412).
T3 sequence (looked up): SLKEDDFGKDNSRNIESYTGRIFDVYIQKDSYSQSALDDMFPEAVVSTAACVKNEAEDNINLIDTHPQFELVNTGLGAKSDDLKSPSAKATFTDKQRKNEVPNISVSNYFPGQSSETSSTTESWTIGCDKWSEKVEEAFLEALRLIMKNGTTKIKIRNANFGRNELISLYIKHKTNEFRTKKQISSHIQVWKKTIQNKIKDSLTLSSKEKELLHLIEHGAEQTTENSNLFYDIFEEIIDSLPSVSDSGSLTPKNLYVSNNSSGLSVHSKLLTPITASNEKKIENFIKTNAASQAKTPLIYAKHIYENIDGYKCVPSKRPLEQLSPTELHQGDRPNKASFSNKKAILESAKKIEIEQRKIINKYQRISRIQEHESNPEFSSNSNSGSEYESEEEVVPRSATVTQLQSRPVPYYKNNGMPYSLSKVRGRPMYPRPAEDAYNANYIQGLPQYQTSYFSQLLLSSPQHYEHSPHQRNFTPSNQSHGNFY

In assay [4] the target is T4, Spc72 (Saccharomyces cerevisiae) (UniProt P39723).
T4 sequence (looked up): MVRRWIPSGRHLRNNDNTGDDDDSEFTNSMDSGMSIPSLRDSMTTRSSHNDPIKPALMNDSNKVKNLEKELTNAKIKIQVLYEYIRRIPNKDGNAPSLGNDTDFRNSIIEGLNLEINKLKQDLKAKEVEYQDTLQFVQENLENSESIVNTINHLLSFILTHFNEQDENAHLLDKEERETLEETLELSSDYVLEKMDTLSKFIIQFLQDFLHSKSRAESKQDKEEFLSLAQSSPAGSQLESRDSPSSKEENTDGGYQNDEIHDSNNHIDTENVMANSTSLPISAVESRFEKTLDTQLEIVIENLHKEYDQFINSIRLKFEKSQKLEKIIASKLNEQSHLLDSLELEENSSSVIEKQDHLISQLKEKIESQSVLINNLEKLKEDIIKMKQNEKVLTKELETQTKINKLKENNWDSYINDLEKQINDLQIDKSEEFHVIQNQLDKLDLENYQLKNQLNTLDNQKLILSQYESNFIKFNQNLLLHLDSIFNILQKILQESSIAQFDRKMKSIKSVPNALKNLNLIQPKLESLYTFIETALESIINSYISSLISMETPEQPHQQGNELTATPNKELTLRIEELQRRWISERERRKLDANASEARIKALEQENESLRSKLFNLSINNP

These are yes or no findings as the source states them, for the method shown. In cells and extracts the contact can be indirect. Some entries that bind do so weakly or less than the wild type. Tags and fused reporters may be left off the sequences shown.

B1: Kss1 (protein, Saccharomyces cerevisiae, UniProt P14681 1-368, looked up)
chain: MARTITFDIPSQYKLVDLIGEGAYGTVCSAIHKPSGIKVAIKKIQPFSKKLFVTRTIREIKLLRYFHEHENIISILDKVRPVSIDKLNAVYLVEELMETDLQKVINNQNSGFSTLSDDHVQYFTYQILRALKSIHSAQVIHRDIKPSNLLLNSNCDLKVCDFGLARCLASSSDSRETLVGFMTEYVATRWYRAPEIMLTFQEYTTAMDIWSCGCILAEMVSGKPLFPGRDYHHQLWLILEVLGTPSFEDFNQIKSKRAKEYIANLPMRPPLPWETVWSKTDLNPDMIDLLDKMLQFNPDKRISAAEALRHPYLAMYHDPSDEPEYPPLNLDDEFWKLDNKIMRPEEEEEVPIEMLKDMLYDELMKTME
Turning to B1, the binding entry in assay [1], in assay [2] and in assay [3] was “binds” each time.

B2: Cdc5 (protein, Saccharomyces cerevisiae, UniProt P32562 1-705, looked up)
chain: MSLGPLKAINDKQLNTRSKLVHTPIKGNTADLVGKENHFKQTKRLDPNNDHHHQPAQKKKREKLSALCKTPPSLIKTRGKDYHRGHFLGEGGFARCFQIKDDSGEIFAAKTVAKASIKSEKTRKKLLSEIQIHKSMSHPNIVQFIDCFEDDSNVYILLEICPNGSLMELLKRRKVLTEPEVRFFTTQICGAIKYMHSRRVIHRDLKLGNIFFDSNYNLKIGDFGLAAVLANESERKYTICGTPNYIAPEVLMGKHSGHSFEVDIWSLGVMLYALLIGKPPFQARDVNTIYERIKCRDFSFPRDKPISDEGKILIRDILSLDPIERPSLTEIMDYVWFRGTFPPSIPSTVMSEAPNFEDIPEEQSLVNFKDCMEKSLLLESMSSDKIQRQKRDYISSIKSSIDKLEEYHQNRPFLPHSLSPGGTKQKYKEVVDIEAQRRLNDLAREARIRRAQQAVLRKELIATSTNVIKSEISLRILASECHLTLNGIVEAEAQYKMGGLPKSRLPKIKHPMIVTKWVDYSNKHGFSYQLSTEDIGVLFNNGTTVLRLADAEEFWYISYDDREGWVASHYLLSEKPRELSRHLEVVDFFAKYMKANLSRVSTFGREEYHKDDVFLRRYTRYKPFVMFELSDGTFQFNFKDHHKMAISDGGKLVTYISPSHESTTYPLVEVLKYGEIPGYPESNFREKLTLIKEGLKQKSTIVTVD
As for B2, in assay [4], the binding entry is given as “binds”.

(Values after US20030162221A1.)
